From patent publication EP1881007A1
These are yes or no findings as the source states them, for the method shown. Binding seen in cells or lysates may run through a third protein. Some binding calls cover weakened binding; strength is not graded here. Tags and fused reporters may be left off the sequences shown.

Key:
[1] = target: T1, IKK2 (tagged, expressed in HeLa cells) (UniProt O14920); experiment: yeast two hybrid and co-immunoprecipitation
T1 sequence (looked up): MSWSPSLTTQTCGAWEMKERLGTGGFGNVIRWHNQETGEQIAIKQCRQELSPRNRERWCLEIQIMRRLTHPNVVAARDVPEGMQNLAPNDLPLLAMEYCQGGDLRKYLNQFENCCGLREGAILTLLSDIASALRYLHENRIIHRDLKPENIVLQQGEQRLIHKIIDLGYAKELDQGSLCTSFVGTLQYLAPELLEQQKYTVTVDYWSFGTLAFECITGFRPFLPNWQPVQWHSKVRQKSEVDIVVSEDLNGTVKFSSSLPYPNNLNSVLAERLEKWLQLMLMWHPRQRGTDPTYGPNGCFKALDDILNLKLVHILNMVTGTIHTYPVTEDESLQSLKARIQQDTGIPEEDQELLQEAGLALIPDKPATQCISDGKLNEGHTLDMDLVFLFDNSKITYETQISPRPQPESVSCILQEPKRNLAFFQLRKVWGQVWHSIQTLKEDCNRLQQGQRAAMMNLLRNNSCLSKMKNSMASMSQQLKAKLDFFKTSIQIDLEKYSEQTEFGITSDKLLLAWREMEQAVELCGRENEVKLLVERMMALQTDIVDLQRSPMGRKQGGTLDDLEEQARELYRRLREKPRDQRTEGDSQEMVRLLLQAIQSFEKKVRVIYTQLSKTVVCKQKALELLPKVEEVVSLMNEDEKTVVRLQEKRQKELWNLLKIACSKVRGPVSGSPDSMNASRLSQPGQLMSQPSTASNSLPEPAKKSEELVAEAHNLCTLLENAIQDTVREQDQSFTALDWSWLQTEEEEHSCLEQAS

[2] = target: T1, IKK2 (tagged, expressed in HeLa cells); experiment: co-immunoprecipitation from transfected HeLa cells, Western blot

B1: IKK2-55 polypeptide (tagged, expressed in HeLa cells) (protein, not shown: small tags and cut ends)
chain: MSEVKSRKKSGPKGAPAAEPGKRSEGGKTPVARSSGGGGWADPRTCLSLLSLGTCLGLAWFVFQQSEKFAKVENQYQLLKLETNEFQQLQSKISLISEKLESTESILQEATSSMSLMTQFEQEVSNLQDIMHDIQNNEEVLTQRMQSLNEKFQNITDFWKRSLEEMNINTDIFKSEAKHIHSQVTVQINSAEQEIKLLTERLKDLEDSTLRNIRTVKRQEEEDLLRVEEQLGSDTKAIEKLEEEQHALFARDEDLTNKLSDYEPKVEECKTHLPTIESAIHSVLRVSQDLIETEKKMEDLTMQMFNMEDDMLKAVSEIMEMQKTLEGIQYDNSILKMQNELDILKEKVHDFIAYSSTGEKGTLKEYNIENKGIGGDF
binding [1]: binds | binding [2]: binds
